Test [1] has as its target T1, ɛ‐sarcoglycan (mouse, endogenous; all isoforms caught by the pan anti‐ɛ‐sarcoglycan antibody) (mouse (endogenous in brain and lung)) (UniProt O70258).
T1 sequence: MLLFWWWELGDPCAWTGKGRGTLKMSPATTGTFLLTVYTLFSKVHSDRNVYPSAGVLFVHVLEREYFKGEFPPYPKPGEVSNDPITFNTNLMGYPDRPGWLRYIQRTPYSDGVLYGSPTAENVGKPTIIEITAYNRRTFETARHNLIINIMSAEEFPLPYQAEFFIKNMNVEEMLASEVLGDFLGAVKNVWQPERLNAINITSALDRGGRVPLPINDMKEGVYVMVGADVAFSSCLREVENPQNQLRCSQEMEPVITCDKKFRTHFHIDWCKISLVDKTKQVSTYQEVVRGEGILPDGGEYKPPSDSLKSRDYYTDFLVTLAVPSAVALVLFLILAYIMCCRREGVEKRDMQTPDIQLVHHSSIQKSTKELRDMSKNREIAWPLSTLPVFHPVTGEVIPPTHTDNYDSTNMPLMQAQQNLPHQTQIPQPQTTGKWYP
Kind of test: co-IP; immunoaffinity purification with the pan anti‐ɛ‐sarcoglycan antibody from mouse brain and lung solubilized in RIPA buffer, Western blot. For orientation: Immunoblotting shows a protein as a band on a membrane.

In test [2] the target is T1, ɛ‐sarcoglycan (mouse, endogenous; all isoforms caught by the pan anti‐ɛ‐sarcoglycan antibody) (mouse (endogenous in brain and lung)). The test is described as follows: co-IP; immunoaffinity purification with the pan anti‐ɛ‐sarcoglycan antibody from mouse brain and lung solubilized in 1% digitonin, Western blot.

Results are given in words; binding and its absence hold for the method and conditions named. Binding seen in cells or lysates may run through a third protein. Some results given as binding are weak or reduced against the parent protein; the word gives no strength.

B1: β‐dystroglycan (mouse, endogenous) (protein, UniProt Q62165 652-893)
chain: SIVVEWTNNTLPLEPCPKEQIIGLSRRIADENGKPRPAFSNALEPDFKALSIAVTGSGSCRHLQFIPVAPPSPGSSAAPATEVPDRDPEKSSEDDVYLHTVIPAVVVAAILLIAGIIAMICYRKKRKGKLTLEDQATFIKKGVPIIFADELDDSKPPPSSSMPLILQEEKAPLPPPEYPNQSMPETTPLNQDTVGEYTPLRDEDPNAPPYQPPPPFTAPMEGKGSRPKNMTPYRSPPPYVPP
Consider B1, for which the results for the binding entry in test [1] and in test [2] were “no binding (condition: tissue extracted in RIPA buffer)” and “binds”, respectively.

The values above are taken from publication PMC5129563.
